Reference: doi:10.1101/794776
Results are given in words; binding and its absence hold for the method and conditions named. Binding seen in cells or lysates may run through a third protein. These calls come from enrichment with a bait or labelling near it, and not all partners need be listed. For part of these data: A no says only that the protein was not detected with the bait.

The chains behind the UniProt entries cited, without tags or fusion partners.
UniProt Q969G3: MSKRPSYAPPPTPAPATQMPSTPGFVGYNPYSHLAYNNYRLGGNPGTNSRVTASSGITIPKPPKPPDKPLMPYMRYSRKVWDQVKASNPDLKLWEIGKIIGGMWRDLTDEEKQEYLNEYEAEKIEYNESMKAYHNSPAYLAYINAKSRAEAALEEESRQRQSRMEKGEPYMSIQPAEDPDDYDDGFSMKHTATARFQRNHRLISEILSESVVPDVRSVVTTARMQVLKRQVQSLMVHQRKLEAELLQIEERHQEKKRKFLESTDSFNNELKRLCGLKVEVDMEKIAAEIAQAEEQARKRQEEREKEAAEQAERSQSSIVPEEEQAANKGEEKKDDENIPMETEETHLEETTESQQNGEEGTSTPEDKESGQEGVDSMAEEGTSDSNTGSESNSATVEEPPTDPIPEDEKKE
UniProt O14497: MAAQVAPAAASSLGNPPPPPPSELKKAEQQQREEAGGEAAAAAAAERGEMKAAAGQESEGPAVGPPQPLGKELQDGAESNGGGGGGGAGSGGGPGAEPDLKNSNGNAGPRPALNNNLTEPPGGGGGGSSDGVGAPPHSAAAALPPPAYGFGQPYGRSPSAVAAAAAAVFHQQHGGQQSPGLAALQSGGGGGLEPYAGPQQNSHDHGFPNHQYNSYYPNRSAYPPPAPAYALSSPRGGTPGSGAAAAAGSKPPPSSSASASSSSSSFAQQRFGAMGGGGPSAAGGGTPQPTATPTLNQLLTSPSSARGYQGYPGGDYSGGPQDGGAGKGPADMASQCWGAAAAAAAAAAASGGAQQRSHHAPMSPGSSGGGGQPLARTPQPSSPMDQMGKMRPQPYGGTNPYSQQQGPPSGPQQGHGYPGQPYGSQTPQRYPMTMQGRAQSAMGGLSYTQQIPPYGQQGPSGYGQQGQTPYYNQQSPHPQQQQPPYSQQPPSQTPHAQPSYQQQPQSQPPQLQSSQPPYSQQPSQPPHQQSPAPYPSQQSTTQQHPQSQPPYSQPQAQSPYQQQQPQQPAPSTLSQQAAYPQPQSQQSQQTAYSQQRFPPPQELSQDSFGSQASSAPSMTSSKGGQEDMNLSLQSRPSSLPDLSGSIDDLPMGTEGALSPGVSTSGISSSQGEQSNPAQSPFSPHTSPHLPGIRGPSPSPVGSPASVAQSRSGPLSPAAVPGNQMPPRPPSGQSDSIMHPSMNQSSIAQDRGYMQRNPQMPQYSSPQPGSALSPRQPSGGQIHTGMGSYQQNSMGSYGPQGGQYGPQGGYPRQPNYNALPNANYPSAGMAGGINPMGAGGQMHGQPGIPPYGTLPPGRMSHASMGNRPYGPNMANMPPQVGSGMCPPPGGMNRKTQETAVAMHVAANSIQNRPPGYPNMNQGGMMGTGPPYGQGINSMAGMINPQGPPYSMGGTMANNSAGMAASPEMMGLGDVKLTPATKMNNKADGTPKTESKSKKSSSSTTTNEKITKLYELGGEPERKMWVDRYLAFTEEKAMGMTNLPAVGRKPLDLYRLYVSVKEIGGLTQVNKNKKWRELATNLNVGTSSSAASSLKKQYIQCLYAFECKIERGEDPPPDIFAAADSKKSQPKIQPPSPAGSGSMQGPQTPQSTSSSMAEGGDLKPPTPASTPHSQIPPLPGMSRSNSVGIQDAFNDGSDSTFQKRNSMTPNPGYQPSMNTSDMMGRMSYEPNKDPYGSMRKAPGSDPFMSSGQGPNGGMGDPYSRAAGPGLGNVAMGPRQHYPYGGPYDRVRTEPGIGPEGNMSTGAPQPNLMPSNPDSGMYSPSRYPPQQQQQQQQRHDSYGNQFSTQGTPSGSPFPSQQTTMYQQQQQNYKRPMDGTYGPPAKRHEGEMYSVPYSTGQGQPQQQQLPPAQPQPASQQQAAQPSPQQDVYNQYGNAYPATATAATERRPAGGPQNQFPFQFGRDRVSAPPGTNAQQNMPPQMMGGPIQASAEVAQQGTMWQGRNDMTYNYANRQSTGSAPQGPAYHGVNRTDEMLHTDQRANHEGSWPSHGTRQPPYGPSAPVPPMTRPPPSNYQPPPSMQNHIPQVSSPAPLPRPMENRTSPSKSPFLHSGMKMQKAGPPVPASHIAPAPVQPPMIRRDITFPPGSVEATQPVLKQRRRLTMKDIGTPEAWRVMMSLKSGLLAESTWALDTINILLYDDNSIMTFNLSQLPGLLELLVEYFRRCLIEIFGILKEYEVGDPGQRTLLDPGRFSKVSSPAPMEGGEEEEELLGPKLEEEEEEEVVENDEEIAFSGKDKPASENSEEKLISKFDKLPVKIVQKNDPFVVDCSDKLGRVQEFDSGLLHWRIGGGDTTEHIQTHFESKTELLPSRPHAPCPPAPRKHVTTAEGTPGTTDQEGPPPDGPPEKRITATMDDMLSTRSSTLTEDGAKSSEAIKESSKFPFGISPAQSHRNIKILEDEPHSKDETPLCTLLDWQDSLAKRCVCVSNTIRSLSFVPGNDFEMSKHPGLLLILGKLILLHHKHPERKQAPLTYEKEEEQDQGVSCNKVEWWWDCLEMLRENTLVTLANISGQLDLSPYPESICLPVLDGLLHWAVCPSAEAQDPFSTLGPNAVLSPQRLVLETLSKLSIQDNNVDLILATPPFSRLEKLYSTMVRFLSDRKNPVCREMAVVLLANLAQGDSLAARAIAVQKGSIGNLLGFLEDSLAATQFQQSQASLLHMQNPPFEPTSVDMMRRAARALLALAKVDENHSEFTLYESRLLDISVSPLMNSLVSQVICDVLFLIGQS
UniProt Q12824: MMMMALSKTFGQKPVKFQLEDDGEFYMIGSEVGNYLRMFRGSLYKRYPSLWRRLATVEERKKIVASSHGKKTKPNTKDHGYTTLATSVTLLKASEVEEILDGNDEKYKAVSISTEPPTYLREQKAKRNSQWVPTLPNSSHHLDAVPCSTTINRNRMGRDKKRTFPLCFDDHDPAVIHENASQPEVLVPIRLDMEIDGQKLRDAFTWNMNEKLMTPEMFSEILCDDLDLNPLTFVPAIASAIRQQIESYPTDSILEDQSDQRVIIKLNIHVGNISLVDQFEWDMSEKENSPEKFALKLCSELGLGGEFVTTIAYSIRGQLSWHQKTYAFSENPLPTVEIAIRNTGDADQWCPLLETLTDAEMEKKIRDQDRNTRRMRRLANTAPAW
UniProt Q6AI39: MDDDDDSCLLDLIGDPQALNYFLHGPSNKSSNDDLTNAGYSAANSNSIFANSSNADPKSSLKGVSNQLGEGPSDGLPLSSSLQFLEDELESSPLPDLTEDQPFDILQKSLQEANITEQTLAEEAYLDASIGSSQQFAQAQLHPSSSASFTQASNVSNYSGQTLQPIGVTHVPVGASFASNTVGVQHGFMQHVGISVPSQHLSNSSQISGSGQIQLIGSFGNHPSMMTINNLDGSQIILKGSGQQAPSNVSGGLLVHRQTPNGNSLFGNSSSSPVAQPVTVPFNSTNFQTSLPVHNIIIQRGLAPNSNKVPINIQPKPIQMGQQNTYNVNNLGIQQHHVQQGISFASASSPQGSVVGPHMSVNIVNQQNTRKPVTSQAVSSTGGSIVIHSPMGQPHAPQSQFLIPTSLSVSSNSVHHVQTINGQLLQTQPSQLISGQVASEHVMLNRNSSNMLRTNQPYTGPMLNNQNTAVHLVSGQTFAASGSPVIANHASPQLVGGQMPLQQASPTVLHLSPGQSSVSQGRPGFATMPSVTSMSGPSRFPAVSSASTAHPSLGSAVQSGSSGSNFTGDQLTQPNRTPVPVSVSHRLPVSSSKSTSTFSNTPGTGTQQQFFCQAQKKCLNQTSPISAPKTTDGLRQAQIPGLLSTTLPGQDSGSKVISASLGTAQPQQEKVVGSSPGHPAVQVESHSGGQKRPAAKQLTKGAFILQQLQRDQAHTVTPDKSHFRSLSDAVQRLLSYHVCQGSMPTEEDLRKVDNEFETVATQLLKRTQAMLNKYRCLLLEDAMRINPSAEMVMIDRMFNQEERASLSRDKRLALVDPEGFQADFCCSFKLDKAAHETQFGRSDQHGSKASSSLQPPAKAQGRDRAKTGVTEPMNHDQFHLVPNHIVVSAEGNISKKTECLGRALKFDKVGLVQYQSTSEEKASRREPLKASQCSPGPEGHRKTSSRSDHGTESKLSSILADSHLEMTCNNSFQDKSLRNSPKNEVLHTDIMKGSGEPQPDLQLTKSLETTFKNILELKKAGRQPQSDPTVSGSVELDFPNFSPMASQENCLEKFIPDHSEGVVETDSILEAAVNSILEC
UniProt Q9H8M2: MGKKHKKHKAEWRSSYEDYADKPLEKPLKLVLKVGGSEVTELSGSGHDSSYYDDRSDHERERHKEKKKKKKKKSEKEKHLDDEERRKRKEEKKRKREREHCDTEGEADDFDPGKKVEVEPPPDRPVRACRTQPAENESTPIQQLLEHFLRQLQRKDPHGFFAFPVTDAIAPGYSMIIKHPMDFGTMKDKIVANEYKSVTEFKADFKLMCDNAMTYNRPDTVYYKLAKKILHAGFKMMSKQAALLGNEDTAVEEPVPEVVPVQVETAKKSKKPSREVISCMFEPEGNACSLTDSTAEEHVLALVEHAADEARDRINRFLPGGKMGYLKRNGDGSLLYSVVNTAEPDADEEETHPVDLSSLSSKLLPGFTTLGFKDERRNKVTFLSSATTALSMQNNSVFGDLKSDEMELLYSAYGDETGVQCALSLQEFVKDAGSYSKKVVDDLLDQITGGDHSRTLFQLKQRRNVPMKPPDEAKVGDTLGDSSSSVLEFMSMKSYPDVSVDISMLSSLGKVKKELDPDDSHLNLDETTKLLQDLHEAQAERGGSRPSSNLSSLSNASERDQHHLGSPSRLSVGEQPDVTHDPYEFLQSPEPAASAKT
UniProt P51532: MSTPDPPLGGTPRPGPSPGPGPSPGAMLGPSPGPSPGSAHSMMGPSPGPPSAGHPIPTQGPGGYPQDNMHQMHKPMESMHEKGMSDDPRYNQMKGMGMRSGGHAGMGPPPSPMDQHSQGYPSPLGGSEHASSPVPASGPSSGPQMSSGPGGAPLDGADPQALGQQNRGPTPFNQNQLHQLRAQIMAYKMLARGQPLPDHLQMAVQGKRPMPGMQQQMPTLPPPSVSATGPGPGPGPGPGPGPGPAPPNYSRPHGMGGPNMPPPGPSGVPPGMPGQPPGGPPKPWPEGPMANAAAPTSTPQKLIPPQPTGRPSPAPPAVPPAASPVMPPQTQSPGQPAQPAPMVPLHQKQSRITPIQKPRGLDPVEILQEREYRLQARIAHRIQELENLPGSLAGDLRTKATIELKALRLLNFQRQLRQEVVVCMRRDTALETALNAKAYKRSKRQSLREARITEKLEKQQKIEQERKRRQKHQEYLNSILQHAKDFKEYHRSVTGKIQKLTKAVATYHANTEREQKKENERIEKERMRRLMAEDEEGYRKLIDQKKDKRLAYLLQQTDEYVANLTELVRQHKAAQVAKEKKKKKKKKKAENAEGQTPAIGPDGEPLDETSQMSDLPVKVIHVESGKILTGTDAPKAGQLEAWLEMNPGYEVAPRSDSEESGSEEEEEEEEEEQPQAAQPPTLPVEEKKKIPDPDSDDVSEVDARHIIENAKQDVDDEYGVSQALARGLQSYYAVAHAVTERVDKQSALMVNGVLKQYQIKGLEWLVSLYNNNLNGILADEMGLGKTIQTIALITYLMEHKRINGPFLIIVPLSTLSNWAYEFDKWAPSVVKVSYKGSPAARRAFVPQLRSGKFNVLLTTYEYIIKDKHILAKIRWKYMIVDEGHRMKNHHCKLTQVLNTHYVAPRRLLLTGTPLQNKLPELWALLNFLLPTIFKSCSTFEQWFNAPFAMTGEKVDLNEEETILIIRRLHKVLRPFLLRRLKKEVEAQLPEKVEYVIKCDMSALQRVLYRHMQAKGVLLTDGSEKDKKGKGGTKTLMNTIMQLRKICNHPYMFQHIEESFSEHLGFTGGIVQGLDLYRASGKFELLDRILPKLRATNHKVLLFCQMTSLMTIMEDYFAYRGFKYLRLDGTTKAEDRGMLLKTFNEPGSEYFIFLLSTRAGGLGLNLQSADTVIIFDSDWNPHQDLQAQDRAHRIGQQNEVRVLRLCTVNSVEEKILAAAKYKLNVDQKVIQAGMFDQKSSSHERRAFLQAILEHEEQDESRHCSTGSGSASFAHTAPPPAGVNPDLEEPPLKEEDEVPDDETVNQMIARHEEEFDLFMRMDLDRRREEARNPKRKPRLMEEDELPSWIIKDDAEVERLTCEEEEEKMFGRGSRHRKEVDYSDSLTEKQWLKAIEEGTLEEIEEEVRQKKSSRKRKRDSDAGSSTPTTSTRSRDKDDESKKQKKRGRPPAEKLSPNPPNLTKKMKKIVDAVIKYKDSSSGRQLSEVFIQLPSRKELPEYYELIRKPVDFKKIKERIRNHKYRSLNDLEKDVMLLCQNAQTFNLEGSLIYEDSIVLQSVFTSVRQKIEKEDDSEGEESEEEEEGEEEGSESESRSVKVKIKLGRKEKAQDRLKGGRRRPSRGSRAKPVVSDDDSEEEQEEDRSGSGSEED

Experiments:
Test in all cases: affinity purification with mass spectrometry
[1] = molecular target: SMARCC1 (human (endogenous in HAP1, BIN67, SCCOHT1, COV434)) (UniProt Q92922)
[2] = molecular target: SMARCE1 (human (endogenous in HAP1, BIN67, SCCOHT1, COV434)) (UniProt Q969G3)
[3] = molecular target: ARID1A (human (endogenous in HAP1, BIN67, SCCOHT1, COV434)) (UniProt O14497)
[4] = molecular target: ARID2 (human (endogenous in HAP1, BIN67, SCCOHT1, COV434)) (UniProt Q68CP9)
[5] = molecular target: SMARCB1 (human (endogenous in HAP1, BIN67, SCCOHT1, COV434)) (UniProt Q12824)

Substance | binding [1] | binding [2] | binding [3] | binding [4] | binding [5]
BICRAL (from UniProt Q6AI39 1-1079) | binds | no binding | no binding | no binding | no binding
BICRA (from UniProt Q9NZM4 1-1560) | binds | no binding | no binding | no binding | no binding
BRD9 (from UniProt Q9H8M2 1-597) | binds | no binding | no binding | no binding | no binding
SMARCA4 (wild type, HAP1) (from UniProt P51532 1-1647) | – | binds | binds | – | binds
